Test results reported in the supplement of paper PMC8728848.
The other results are listed elsewhere or left out.

Assays:
Assay in all cases: glycan array binding signal (z-score within array); higher = stronger binding
Conditions in all cases: glycan notation: IUPAC condensed, linker removed
[1] = biological target: Neu5Ac(a2-6)Gal(b1-4)GlcNAc(b1-3)Gal(b1-4)GlcNAc(b1-3)GalNAc
Method in brief: (§1)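 Glycan array data came from 3228 arrays in the Consortium for Functional Glycomics database, and only arrays with an available protein sequence were kept. Glycan names were put into IUPAC-condensed notation, and columns mapping to the same glycan were averaged. The binding signal is a within-array Z-score, averaged across arrays of one protein sequence run at different concentrations or buffers and across linkers. A negative Z-score can be read as non-binding.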

[2] = biological target: Neu5Ac(a2-6)Gal(b1-4)GlcNAc(b1-3)Gal(b1-4)GlcNAc(b1-3)[Neu5Ac(a2-6)Gal(b1-4)GlcNAc(b1-3)Gal(b1-4)GlcNAc(b1-6)]GalNAc
Method in brief: as §1

[3] = biological target: Neu5Ac(a2-6)Gal(b1-4)GlcNAc(b1-3)Gal(b1-4)GlcNAc(b1-6)[Gal(b1-3)]GalNAc
Method in brief: as §1

[4] = biological target: Neu5Ac(a2-6)Gal(b1-4)GlcNAc(b1-3)Gal(b1-4)[Fuc(a1-3)]GlcNAc(b1-3)Gal(b1-4)[Fuc(a1-3)]GlcNAc
Method in brief: as §1

[5] = biological target: Neu5Ac(a2-6)Gal(b1-4)GlcNAc(b1-3)GalNAc
Method in brief: as §1

[6] = biological target: Neu5Ac(a2-6)Gal(b1-4)GlcNAc(b1-3)[Neu5Ac(a2-6)Gal(b1-4)GlcNAc(b1-6)]GalNAc
Method in brief: as §1

[7] = biological target: Neu5Ac(a2-6)Gal(b1-4)GlcNAc(b1-6)GalNAc
Method in brief: as §1

[8] = biological target: Neu5Ac(a2-6)Gal(b1-4)GlcNAc(b1-6)[Gal(b1-3)GlcNAc(b1-3)]Gal(b1-4)Glc
Method in brief: as §1

[9] = biological target: Neu5Ac(a2-6)Gal(b1-4)GlcNAc(b1-6)[Gal(b1-3)]GalNAc
Method in brief: as §1

[10] = biological target: Neu5Ac(a2-6)Gal(b1-4)GlcNAc6S
Method in brief: as §1

Neu5Ac(a2-6)GalNAc = biological target: Neu5Ac(a2-6)GalNAc
Method in brief: as §1

[11] = biological target: Neu5Ac(a2-6)GalNAc(b1-4)GlcNAc
Method in brief: as §1

[12] = biological target: Neu5Ac(a2-6)GalNAc(b1-4)GlcNAc6S
Method in brief: as §1

[13] = biological target: Neu5Ac(a2-6)GlcNAc(b1-4)GlcNAc
Method in brief: as §1

[14] = biological target: Neu5Ac(a2-6)GlcNAc(b1-4)GlcNAc(b1-4)GlcNAc
Method in brief: as §1

Neu5Ac(a2-8)Neu5Ac = biological target: Neu5Ac(a2-8)Neu5Ac
Method in brief: as §1

[15] = biological target: Neu5Ac(a2-8)Neu5Ac(a2-3)Gal(b1-3)GalNAc(b1-4)[Neu5Ac(a2-3)]Gal(b1-4)Glc
Method in brief: as §1

[16] = biological target: Neu5Ac(a2-8)Neu5Ac(a2-3)Gal(b1-3)GalNAc(b1-4)[Neu5Ac(a2-8)Neu5Ac(a2-3)]Gal(b1-4)Glc
Method in brief: as §1

[17] = biological target: Neu5Ac(a2-8)Neu5Ac(a2-3)Gal(b1-4)Glc
Method in brief: as §1

[18] = biological target: Neu5Ac(a2-8)Neu5Ac(a2-3)Gal(b1-4)GlcNAc
Method in brief: as §1

[19] = biological target: Neu5Ac(a2-8)Neu5Ac(a2-3)[Gal(b1-3)GalNAc(b1-4)]Gal(b1-4)Glc
Method in brief: as §1

[20] = biological target: Neu5Ac(a2-8)Neu5Ac(a2-3)[GalNAc(b1-4)]Gal(b1-4)Glc
Method in brief: as §1

[21] = biological target: Neu5Ac(a2-8)Neu5Ac(a2-8)Neu5Ac
Method in brief: as §1

[22] = biological target: Neu5Ac(a2-8)Neu5Ac(a2-8)Neu5Ac(a2-3)Gal(b1-4)Glc
Method in brief: as §1

[23] = biological target: Neu5Ac(a2-8)Neu5Ac(a2-8)Neu5Ac(a2-3)[Gal(b1-3)GalNAc(b1-4)]Gal(b1-4)Glc
Method in brief: as §1

[24] = biological target: Neu5Ac(a2-8)Neu5Ac(a2-8)Neu5Ac(a2-3)[GalNAc(b1-4)]Gal(b1-4)Glc
Method in brief: as §1

[25] = biological target: Neu5Ac(a2-8)Neu5Ac(a2-8)Neu5Ac(a2-8)Neu5Ac(a2-3)[GalNAc(b1-4)]Gal(b1-4)Glc
Method in brief: as §1

[26] = biological target: Neu5Ac(a2-8)Neu5Gc(a2-3)Gal(b1-4)GlcNAc
Method in brief: as §1

[27] = biological target: Neu5Ac(b2-6)Gal(b1-4)GlcNAc
Method in brief: as §1

Neu5Ac(b2-6)GalNAc = biological target: Neu5Ac(b2-6)GalNAc
Method in brief: as §1

[28] = biological target: Neu5Ac9Ac(a2-3)Gal(b1-3)GlcNAc
Method in brief: as §1

[29] = biological target: Neu5Ac9Ac(a2-3)Gal(b1-4)GlcNAc
Method in brief: as §1

[30] = biological target: Neu5Ac9Ac(a2-6)Gal(b1-4)GlcNAc
Method in brief: as §1

[31] = biological target: Neu5Gc(a2-3)Gal(b1-3)GlcNAc
Method in brief: as §1

[32] = biological target: Neu5Gc(a2-3)Gal(b1-3)[Fuc(a1-4)]GlcNAc
Method in brief: as §1

Neu5Gc(a2-3)Gal(b1-4)Glc = biological target: Neu5Gc(a2-3)Gal(b1-4)Glc
Method in brief: as §1

[33] = biological target: Neu5Gc(a2-3)Gal(b1-4)GlcNAc
Method in brief: as §1

[34] = biological target: Neu5Gc(a2-3)Gal(b1-4)GlcNAc(b1-3)Gal(b1-4)GlcNAc(b1-2)Man(a1-3)[Neu5Gc(a2-3)Gal(b1-4)GlcNAc(b1-3)Gal(b1-4)GlcNAc(b1-2)Man(a1-6)]Man(b1-4)GlcNAc(b1-4)GlcNAc
Method in brief: as §1

[35] = biological target: Neu5Gc(a2-3)Gal(b1-4)[Fuc(a1-3)]GlcNAc
Method in brief: as §1

[36] = biological target: Neu5Gc(a2-6)Gal(b1-4)GlcNAc
Method in brief: as §1

Neu5Gc(a2-6)GalNAc = biological target: Neu5Gc(a2-6)GalNAc
Method in brief: as §1

[37] = biological target: Neu5Gc(a2-8)Neu5Ac(a2-3)Gal(b1-4)GlcNAc
Method in brief: as §1

[38] = biological target: Neu5Gc(a2-8)Neu5Gc(a2-3)Gal(b1-4)GlcNAc
Method in brief: as §1

[39] = biological target: Neu5Gc(a2-8)Neu5Gc(a2-3)Gal(b1-4)GlcNAc(b1-3)Gal(b1-4)GlcNAc
Method in brief: as §1

[40] = biological target: Neu5Gc(a2-8)Neu5Gc(a2-6)Gal(b1-4)GlcNAc
Method in brief: as §1

[41] = biological target: Neu5Gc(b2-6)Gal(b1-4)GlcNAc
Method in brief: as §1

B1: GS7807I-bvu-563-22-563 (Bacteroides vulgatus) (protein)
chain: IFSSCTDDFEKLNTSNIQVDPADLPFAAQCTEPMTYCYPPQQNMFQFWTNLTIDLYGGYFMTPNGNFTNGDMGENRGHSGGMYENYYLHIFNNTRRIIAQCDASGERGLSGVMRIVQAYGTLMTTDAYGPIPYSSILSGENEVYFEFDSQKDLYKAMLEDLSTAITDISAMGADEIAKLKSFDCWCNGDKDLWVKIANTMKLRMALRLSKRETEAGNAGMNLKAIATEAAQNTLATVNKDILIDKSLENEMWLMFNWGDCGFNANLVTIMSGTKDPRQPLYMTLNTGDIKNEAGTTTVAANSQYLGIRFASGLPAKPNSWGNFSGWIQGNNGSSYSMPLPIMKAAEAYFLLAEAKLRWDIGSESVKNLYENGIRVSMTNELAYRGAYAGIKEYPEGAVDAYINGTSTQIDYTDPIKAELSTPAVNKLSVKWDESASNEEKLERIITQKWLALFPLSTEGWAEQRRTGYPRFFPAFVNESNGAVNTEEGVRRVIYSSQAYDANAKGVEGGIKLLDEENSSKFGISGDKGGTHLWWDNADKGNF
Which “glycan array binding signal (z-score)” value [1] does the source give for B1 here?
Its value is -0.291.

And the “glycan array binding signal (z-score)” value [2]?
Its value is 0.08.

And the “glycan array binding signal (z-score)” value [3]?
The value was 0.992.

What about the “glycan array binding signal (z-score)” value [4] of the same binder?
The value was -0.899.

What about the “glycan array binding signal (z-score)” value [5] of the same binder?
The value was 0.534.

And the “glycan array binding signal (z-score)” value [6]?
The value was 0.155.

And the “glycan array binding signal (z-score)” value [7]?
The value was 0.617.

And the “glycan array binding signal (z-score)” value [8]?
The value was 0.231.

And the “glycan array binding signal (z-score)” value [9]?
The value was 1.67.

What about the “glycan array binding signal (z-score)” value [10] of the same binder?
The value was 0.931.

What about the “glycan array binding signal (z-score)” value (Neu5Ac(a2-6)GalNAc) of the same binder?
Its value is -0.596.

What about the “glycan array binding signal (z-score)” value [11] of the same binder?
Its value is 0.904.

What about the “glycan array binding signal (z-score)” value [12] of the same binder?
The value was 0.01.

What about the “glycan array binding signal (z-score)” value [13] of the same binder?
Its value is 0.338.

And the “glycan array binding signal (z-score)” value [14]?
The value was -0.353.

What about the “glycan array binding signal (z-score)” value (Neu5Ac(a2-8)Neu5Ac) of the same binder?
Its value is -0.841.

What about the “glycan array binding signal (z-score)” value [15] of the same binder?
Its value is -0.4.

And the “glycan array binding signal (z-score)” value [16]?
The value was 0.202.

And the “glycan array binding signal (z-score)” value [17]?
Its value is -0.815.

What about the “glycan array binding signal (z-score)” value [18] of the same binder?
Its value is -1.14.

And the “glycan array binding signal (z-score)” value [19]?
Its value is -1.22.

What about the “glycan array binding signal (z-score)” value [20] of the same binder?
Its value is -0.73.

What about the “glycan array binding signal (z-score)” value [21] of the same binder?
The value was -0.325.

And the “glycan array binding signal (z-score)” value [22]?
Its value is 0.406.

And the “glycan array binding signal (z-score)” value [23]?
The value was -0.112.

And the “glycan array binding signal (z-score)” value [24]?
The value was -0.995.

And the “glycan array binding signal (z-score)” value [25]?
The value was 0.09.

What about the “glycan array binding signal (z-score)” value [26] of the same binder?
The value was -0.153.

And the “glycan array binding signal (z-score)” value [27]?
Its value is -0.47.

And the “glycan array binding signal (z-score)” value (Neu5Ac(b2-6)GalNAc)?
The value was -1.47.

And the “glycan array binding signal (z-score)” value [28]?
Its value is 0.259.

What about the “glycan array binding signal (z-score)” value [29] of the same binder?
The value was 0.474.

And the “glycan array binding signal (z-score)” value [30]?
Its value is -0.67.

And the “glycan array binding signal (z-score)” value [31]?
Its value is -0.318.

What about the “glycan array binding signal (z-score)” value [32] of the same binder?
The value was 1.23.

And the “glycan array binding signal (z-score)” value (Neu5Gc(a2-3)Gal(b1-4)Glc)?
The value was -1.04.

What about the “glycan array binding signal (z-score)” value [33] of the same binder?
Its value is -1.32.

What about the “glycan array binding signal (z-score)” value [34] of the same binder?
The value was -0.981.

And the “glycan array binding signal (z-score)” value [35]?
The value was -1.27.

And the “glycan array binding signal (z-score)” value [36]?
The value was -0.874.

What about the “glycan array binding signal (z-score)” value (Neu5Gc(a2-6)GalNAc) of the same binder?
The value was -0.534.

And the “glycan array binding signal (z-score)” value [37]?
Its value is 0.615.

What about the “glycan array binding signal (z-score)” value [38] of the same binder?
The value was -1.24.

What about the “glycan array binding signal (z-score)” value [39] of the same binder?
The value was 0.112.

And the “glycan array binding signal (z-score)” value [40]?
The value was -0.625.

What about the “glycan array binding signal (z-score)” value [41] of the same binder?
Its value is -0.415.
